According to PubChem BioAssay AID504444 (National Center for Advancing Translational Sciences (NCATS), 2011):
In all, about 360,000 compounds went through this assay and about 7,500 (2.1%) were called active. This list was built around the results that the source calls inconclusive (neither active nor inactive); the mix of calls is not that of the screen. Calls come from the whole dose curve; as a rule, active = well fitted inhibition curve with a large enough effect; inconclusive = small, poorly fitted or top-dose-only effect, or effect the other way; inactive = flat fitted curve, though single readings scatter. Potencies of inconclusive entries are doubtful fits and often do not repeat.

Assay: Nrf2 qHTS screen for inhibitors; note: nearly all actives have a fitted effect of over 60% in size
Details: A549 ARE-Fluc reporter, luciferase luminescence, 18-24 h; activity change, negative = inhibition: at 46 µM (top of the series)
Outline: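 Cells were seeded and rested 2 h, then exposed to compounds for 18-24 h. CellTiter-Fluor was read first as a viability measure. BugLite was added 15 min before the final luminescent read of ARE-luciferase activity in A549 cells.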
% is set by controls: 0 for no effect and ±100 for the full control effect; potency is the fitted concentration of half-maximal effect.

Structure (SMILES) | Potency | activity change, negative = inhibition
COc1cccc(Cl)c1NC(=O)N1CCc2c([nH]c3ccccc23)C1C(F)(F)F (centres undefined) | inactive | 
CN(C)c1ccc(-c2nnn(Cc3ccccc3Br)n2)cc1 | inactive | 
CC(=O)Nc1cccc(OCC(=O)Nc2ccc(F)cc2)c1 | inconclusive: 3.26 µM [activator, full curve, poor fit] | 
Cc1cccc(N2CCN(c3ncnc4onc(C)c34)CC2C)c1 (centres undefined) | active: 23.1 µM | 
COc1cccc(C(=O)NCCS(=O)(=O)N2CCCCCC2)c1 | inactive | 
CCc1cccc(C)c1NC(=O)c1cn2c3c(ccc(Cl)c3c1=O)OC(C)C2 (centres undefined) | inconclusive: 29.1 µM [activator, single point] | 
Cc1ccccc1-c1ccccc1CN1[C@@H](C(C)C)COCCS1(=O)=O | inconclusive: 23.1 µM [activator, single point] | 
Cc1sc2nc(-c3ccccn3)[nH]c(=O)c2c1-c1ccccc1 | active: 11.6 µM | 
COc1cccc(Nc2nnc(SCC(=O)Nc3sccc3C(N)=O)s2)c1 | inactive | 
COc1ccc(C(=O)NCC(=O)N=Nc2c(O)n(Cc3ccccc3)c3ccccc23)cc1OC | inconclusive: 16.4 µM [activator, partial curve, poor fit] | 
O=c1c2cc(NC(=S)NC3CCCCC3)ccc2nc2n1CCCCC2 | inconclusive: 10.3 µM [falling, partial curve] | 
CCCCN(C)S(=O)(=O)c1cc(-c2cc(C)no2)ccc1C | inconclusive: 29.1 µM [falling, single point] | 
COc1cc(C(=O)NCC(=O)N/N=C/c2ccccn2)cc(OC)c1OC | inconclusive: 0.13 µM [activator, full curve, poor fit] | 
CCCCOc1ccc(C(O)(CCC)CCN2CCOCC2)cc1 (centres undefined) | inactive | 
O=C(Nc1ccc(Cl)cc1)C(Cl)C(=O)c1ccccc1 (centres undefined) | inactive | 
CCOc1ccc(NC(=O)c2c(NC(=O)c3ccccc3Br)sc3c2CCC(C)C3)cc1 (centres undefined) | inactive | 
Cc1ccc(C(=O)n2nc(-n3cccc3)c3c(C)cc(C)nc32)cc1 | inconclusive: 16.4 µM [falling, single point] | 
O=C(CNC(=O)c1ccc(F)cc1)c1ccc(Cl)cc1 | inconclusive: 18.4 µM [activator, single point] | 
COc1cccc(COC(=O)Nc2ccccc2F)c1 | inconclusive: 18.4 µM [activator, partial curve] | 
O=C(O)c1ccc(S(=O)(=O)c2ccc([N+](=O)[O-])cc2[N+](=O)[O-])cc1 | inconclusive: 29.1 µM [falling, single point] | 
O=C(Nc1ccccc1F)c1ccc(CSc2ccccc2)o1 | inconclusive: 13 µM [activator, partial curve, poor fit] | 
CCCCn1c(-c2cccc3ccccc23)nc2cc3[nH]c(=O)c(C(C)C)nc3cc21 | inconclusive: 29.1 µM [falling, single point] | 
Cc1ccc(OCC(=O)N/N=C\c2cccs2)c([N+](=O)[O-])c1 | inconclusive: 4.61 µM [activator, full curve] | 

Structure (SMILES) | Potency | activity change, negative = inhibition
O=C(NNC(=O)c1ccc(Oc2cc(Cl)cc(Cl)c2)o1)c1ccccc1 | inactive | 
CCC(=O)N1CCc2cc(Br)cc(S(=O)(=O)N(CC)Cc3ccccc3)c21 |  | inactive: 2.49% [at 9.27 µM]
CCCOc1ccccc1NC(=O)Nc1ccccc1Cl | inconclusive: 3.26 µM [activator, partial curve, poor fit] | 
N=c1c(S(=O)(=O)c2ccccc2)cc2c(=O)n3ccccc3nc2n1C1CCCCC1 | inconclusive: 18.4 µM [falling, single point] | 
O=C(NNC(=O)c1ccc(Cl)cc1Cl)c1cccs1 | inconclusive: 5.17 µM [activator, full curve, poor fit] | 
CCn1c(SCC(=O)NC2CCCC2)nnc1-c1cccnc1 | inactive | 
NC1=NC(=Nc2cccc(S(N)(=O)=O)c2)c2ccccc21 | inactive | 
COc1ccc(-c2ccc(SCC(=O)c3cccs3)nn2)cc1OC | inconclusive: 23.1 µM [falling, single point] | 
CCOc1cc(CNc2ccc(Br)cc2)cc(Br)c1OCC(=O)NC(C)(C)C | inconclusive: 29.1 µM [falling, single point] | 
CCCC(C)Sc1nc2c([nH]1)c(=S)n(C)c(=O)n2C (centres undefined) | inconclusive: 23.1 µM [falling, single point] | 
C[n+]1cn(Cc2ccc(C#N)cc2)c2ccccc21 | inconclusive: 32.6 µM [falling, partial curve, poor fit] | 
O=C(CN(C(=O)c1ccccc1Cl)C1CCCCC1)Nc1ccc(Cl)c([N+](=O)[O-])c1 | inconclusive: 29.1 µM [falling, single point] | 
Cn1c(=O)c2c(nc(-n3ccnc3)n2Cc2ccccc2)n(C)c1=O | inconclusive: 0.82 µM [activator, full curve, poor fit] | 
COc1ccccc1-c1cc(C(=O)N/N=C/C=C/c2ccccc2[N+](=O)[O-])c2ccccc2n1 | inconclusive: 18.4 µM [falling, single point] | 
O=C(NCCc1ccccc1)c1ccc(NC(=O)C2CCCCC2)cc1 | inactive | 
Cc1ccccc1NC(=O)CSc1nnc(C)c2ccccc12 | inconclusive: 20.6 µM [falling, single point] | 
CCc1cccc(C)c1NS(=O)(=O)c1ccc(-c2cc(C)no2)s1 | inconclusive: 3.66 µM [activator, full curve] | 
Cc1cccc(NC(=O)c2c(N)sc3c2CCC(C)C3)c1 (centres undefined) | inconclusive: 6.51 µM [activator, partial curve, poor fit] | 
CCc1ccc(Nc2ncc3c(n2)CC(c2ccc(OC)cc2)CC3=O)cc1 (centres undefined) | inactive | 
Cc1cc(O)c(C(=O)/C=C/c2cccc([N+](=O)[O-])c2)c(=O)o1 | inactive | 
C[N+]1=C(/C=C/Nc2ccccc2Cl)C(C)(C)c2ccccc21 | inconclusive: 16.4 µM [falling, single point] | 
CCCCCCCC[n+]1c(C)n(-c2ccccc2)c2ccc(NC(C)=O)cc21 | active: 11.6 µM | 
O=C(O)CCC(=O)Nc1cc(C(F)(F)F)cc(C(F)(F)F)c1 | inactive | 

Reprinted at random: 2 records from the list.
Structure (SMILES) | Potency | activity change, negative = inhibition
O=C(O)CCC(=O)Nc1cc(C(F)(F)F)cc(C(F)(F)F)c1 | inactive | 
Cn1c(=O)c2c(nc(-n3ccnc3)n2Cc2ccccc2)n(C)c1=O | inconclusive: 0.82 µM [activator, full curve, poor fit] | 

A section taken from the entries so far, for reference:
Structure (SMILES) | Potency | activity change, negative = inhibition
CCc1ccc(Nc2ncc3c(n2)CC(c2ccc(OC)cc2)CC3=O)cc1 (centres undefined) | inactive | 
Cc1cc(O)c(C(=O)/C=C/c2cccc([N+](=O)[O-])c2)c(=O)o1 | inactive | 

More entries

Structure (SMILES) | Potency | activity change, negative = inhibition
Cc1cc(C)c(C)c(S(=O)(=O)N2CCC(C(=O)NCCCN3CCCC3=O)CC2)c1C | inconclusive: 14.6 µM [falling, partial curve, poor fit] | 
O=C(Cn1ncc(N2CCCC2)c(Br)c1=O)c1ccc(Cl)cc1 | inconclusive: 1.3 µM [activator, full curve, poor fit] | 
COc1ccc(S(=O)(=O)NNC(=O)c2cccs2)cc1 | inconclusive: 5.17 µM [falling, partial curve, poor fit] | 
COc1ccc(C(=O)Nc2ccc([N+](=O)[O-])cn2)c(OC)c1 | inconclusive: 0.411 µM [activator, full curve] | 
CC(=O)C1=C(O)C(=O)N(c2cc(C(C)(C)C)on2)C1c1ccc(Br)cc1 (centres undefined) | inactive | 
COC(=O)/C(=C\Nc1ccc(OC)cc1)NC(=O)c1ccc(Cl)cc1Cl | inactive | 
C=CCn1c(=S)[nH]c2sc3c(c2c1=O)CCC3 | inconclusive: 29.1 µM [falling, single point] | 
CC(=O)c1c(C)nc(-c2ccc(Cl)cc2)nc1N | inconclusive: 9.2 µM [activator, partial curve] | 
Cc1nc(N2CCN(C(=O)CCC(=O)O)CC2)c2c(C)c(C)sc2n1 | inconclusive: 0.0041 µM [falling, full curve, poor fit] | 
COc1cccc(NC(=O)Cn2c(=O)n(Cc3ccco3)c(=O)c3cc(OC)c(OC)cc32)c1 | inactive | 
CCOC(=O)c1cc(-c2cc3ccccc3o2)nc2c1c(=O)[nH]c(=O)n2CCOC | inactive | 
COc1ccc(C(=O)Cc2ccc(OC)c(OC)c2)cc1 | inconclusive: 20.6 µM [activator, single point] | 
Cc1cc(C(=O)CN2C(=O)NC(c3ccccc3)(c3ccccc3)C2=O)c(C)n1Cc1ccccc1 | inconclusive: 23.1 µM [falling, single point] | 
O=C(NCC(=O)N1CCN(c2ccc(C(F)(F)F)cn2)CC1)c1ccc(Br)o1 | inconclusive: 11.6 µM [falling, partial curve, poor fit] | 
Cc1cc(NC(=O)CSc2nnnn2-c2cc(Cl)ccc2C)no1 | inconclusive: 32.6 µM [activator, single point] | 
Cc1ccc2cc(CCNS(=O)(=O)c3ccc(F)cc3)c(=O)[nH]c2c1C | inconclusive: 23.1 µM [falling, single point] | 
Cc1ccn2c(Nc3ccccc3C)c(-c3ccccc3)nc2c1 | inconclusive: 23.1 µM [activator, partial curve] | 
Cc1ccc2nc(N3CCN(S(=O)(=O)c4ccc5c(c4)OCCO5)CC3)c(C#N)cc2c1 | inconclusive: 25.9 µM [falling, single point] | 
COc1ccc(CCNc2ncnc3c2oc2ccccc23)cc1OC | active: 5.17 µM | 
O=C(Nc1ccc2nc(SCC(=O)N3CCOCC3)sc2c1)c1ccccc1Cl | inconclusive: 20.6 µM [falling, single point] | 
Cc1ccc(NCc2cccn2-c2nnc(N3CCC(C(=O)NCc4ccc(F)cc4)CC3)s2)cc1 | inconclusive: 29.1 µM [falling, single point] | 
Cn1c(NC(=O)C[n+]2cc(-c3ccc(F)cc3)n3c2CCC3)cc(=O)n(C)c1=O | inactive | 
Cn1nnc(NCc2cc(Br)ccc2OCc2ccccc2F)n1 | inconclusive: 23.1 µM [falling, single point] | 
